According to PubChem BioAssay AID1347076 (National Center for Advancing Translational Sciences (NCATS), 2019):
Hit rate of the full screen: of about 400,000 compounds, about 13,000 (3.2%) were called active. This list was built around the results that the source calls inconclusive (neither active nor inactive); the mix of calls is not that of the screen. The call rests on the fitted dose curve; in most records, active means well fitted cell-killing curve with a large enough effect; inconclusive means small, poorly fitted or top-dose-only effect, or effect the other way; inactive means flat fitted curve, though single readings scatter. Potencies beside an inconclusive call are fits to weak or partial responses and may not hold up.

Assay: qHTS assay for MDR1-selective chemotherapeutics: Primary screen using the drug-selected MDR subline cells KB-V1; further: nearly all actives have a fitted effect of over 60% in size
Conditions: KB-V1 MDR cells viability, CellTiter-Glo, 72 h; activity change, negative = cytotoxicity: at 46.1 µM (top of the series)
Procedure, shortened: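 Cytotoxicity via CellTiter-Glo luminescence after 72 h compound exposure at 37 degrees C. Cells: drug-selected KB-V1 line, DMEM phenol-red free plus 10% FBS. Compounds tested at multiple concentrations; normalized data fitted to concentration-effect curves.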
On the % scale 0 is the no-effect control and ±100 the full control effect; potency means the concentration at half of the fitted maximal effect.

Q: Which Potency does the source give for CCc1ccccc1N(C)C(=O)c1cn(CC(C)C)c(=O)c2cc(OC)c(OC)cc12 here?
A: Its Potency is “inactive”.

Q: Which Potency does the source give for C=CCn1c(Oc2cc(C)ccc2C)nc2c1c(=O)n(C)c(=O)n2C here?
A: Its Potency is inconclusive: 23.1 µM [cytotoxic, single point].

Q: For O=C(O)CCC(=O)N1CCN(c2nc(-c3ccccc3)c3cc(Br)ccc3n2)CC1, which Potency is on record?
A: Its Potency is “inactive”.

Q: With CN(C(=O)c1ccccc1)C(=O)c1ccccc1 as the compound, how does the Potency read?
A: Its Potency is “inactive”.

Q: For CCCNC(=O)C1(C)CCN(C(=O)c2ccc3sccc3c2)C1 (stereo not drawn), which Potency is on record?
A: The Potency was “inactive”.

Q: For O=C(OC1CCc2ccccc2C1=O)c1ccccc1O (stereo not drawn), which Potency is on record?
A: The Potency was inconclusive: 0.517 µM [rising, full curve, poor fit].

Q: With CC(C)CNS(=O)(=O)c1ccc(CC(C)C)cc1 as the compound, how does the Potency read?
A: Its Potency is inconclusive: 29.1 µM [rising, partial curve, poor fit].

Q: With OC[C@@H]1[C@@H](c2ccc(Cl)cc2)C(c2cccc(Cl)c2)=NN1c1ccccc1 as the compound, how does the Potency read?
A: The Potency was inconclusive: 20.6 µM [cytotoxic, single point].

Q: Which Potency does the source give for CC(C)CNC(=O)c1ccccc1NC(=O)c1ccc(CN2CCOCC2)cc1 here?
A: Its Potency is inconclusive: 9.2 µM [cytotoxic, partial curve, poor fit].

Q: With CCOC(=O)c1sc(C)c2c1NC(C)(c1cccs1)NC2=O (stereo not drawn) as the compound, how does the Potency read?
A: The Potency was active: 5.17 µM.

Q: Which Potency does the source give for CCC(=O)/C=C1\Sc2ccc(OC)cc2N1CCO here?
A: Its Potency is inconclusive: 20.6 µM [cytotoxic, single point].

Q: For CN(C(=O)CSc1nnc(CNC(=O)c2ccccc2)o1)c1ccccc1, which Potency is on record?
A: Its Potency is inconclusive: 29.1 µM [cytotoxic, single point].

Q: For CNC(=S)NCCc1ccc(OC)cc1, which Potency is on record?
A: Its Potency is “inactive”.

Q: Which Potency does the source give for O=C(NCC1CCCC(CNC(=O)N2CCc3ccccc32)C1)N1CCc2ccccc21 (stereo not drawn) here?
A: Its Potency is active: 5.17 µM.

Q: With CC1(C(=O)NCc2ccccc2Br)CCN1Cc1ccc(-c2ccccc2)o1 (stereo not drawn) as the compound, how does the Potency read?
A: Its Potency is active: 20.6 µM.

Q: Which Potency does the source give for CSc1ncc(CNc2cc([N+](=O)[O-])ccc2C)c(N)n1 here?
A: The Potency was “inactive”.

Q: With CCn1nc(NS(=O)(=O)c2ccc(NC(C)=O)cc2)c2cc3cccc(C)c3nc21 as the compound, how does the Potency read?
A: Its Potency is inconclusive: 32.6 µM [rising, single point].

Q: For CC1CCCN(S(=O)(=O)c2ccc(C(=O)Nc3nnc(-c4ccccc4Cl)o3)cc2)C1 (stereo not drawn), which Potency is on record?
A: Its Potency is inconclusive: 2.91 µM [cytotoxic, full curve].

Q: Which Potency does the source give for O=C(COc1ccc(S(=O)(=O)NC2CCCCC2)cc1)N1CCN(c2cccc(Cl)c2)CC1 here?
A: The Potency was inconclusive: 20.6 µM [cytotoxic, single point].

Q: Which Potency does the source give for CN1/C(=C\C(=O)COC(=O)c2ccco2)C(C)(C)c2ccccc21 here?
A: Its Potency is inconclusive: 29.1 µM [rising, single point].

Q: With Cc1ccc(C(c2nnnn2CCc2ccccc2)N2CCC(C)CC2)cc1 (stereo not drawn) as the compound, how does the Potency read?
A: Its Potency is active: 18.4 µM.

Q: Which Potency does the source give for CC(C)C(=O)N1CCN(c2ccc(NC(=O)c3ccc([N+](=O)[O-])o3)cc2Cl)CC1 here?
A: Its Potency is inconclusive: 16.4 µM [cytotoxic, single point].

Q: With NCCCn1c(C(=O)c2ccc(Cl)cc2)c2ccc(C(F)(F)F)cc2[n+]1[O-] as the compound, how does the Potency read?
A: The Potency was “inactive”.

Q: For C=CCSc1nnc(NC(=O)c2ccc3c(c2)OCCO3)s1, which Potency is on record?
A: The Potency was inconclusive: 14.6 µM [cytotoxic, single point].

Q: With CCOC(=O)C1C(C)=CC(=O)CC1c1ccco1 (stereo not drawn) as the compound, how does the Potency read?
A: Its Potency is “inactive”.

Q: For CC(C)=C1C2CCC1C1C(=O)N(c3ccc(C)c(C)c3)C(=O)C21 (stereo not drawn), which Potency is on record?
A: Its Potency is inconclusive: 16.4 µM [cytotoxic, single point].

Q: Which Potency does the source give for CC(C)c1ccc(NS(=O)(=O)c2ccc3[nH]cc(C(=O)NC4CCCC4)c(=O)c3c2)cc1 here?
A: Its Potency is inconclusive: 16.4 µM [rising, single point].

Q: For COC(=O)c1c(NC(=O)c2ccc(C)cc2)sc(Cc2ccccc2)c1C, which Potency is on record?
A: Its Potency is “inactive”.

Q: Which Potency does the source give for Cc1ccc(N2CC3=C(C2=O)C(c2ccc(Br)cc2)NC(=O)N3C)cc1 (stereo not drawn) here?
A: Its Potency is inconclusive: 29.1 µM [rising, single point].

Q: For Cc1cc(C)cc(N=Cc2[nH]c3ccc(Br)c(Cl)c3c2O)c1, which Potency is on record?
A: Its Potency is inconclusive: 29.1 µM [cytotoxic, single point].

Q: For O=C(O)c1ccc2ncc(NC(=O)c3ccc(F)cc3)c(=O)n2c1, which Potency is on record?
A: The Potency was inconclusive: 29.1 µM [cytotoxic, single point].

Q: Which Potency does the source give for O=C(Cn1c(=O)oc2cc(S(=O)(=O)N3CCCCCC3)ccc21)Nc1cccc(C(F)(F)F)c1 here?
A: Its Potency is “inactive”.

Q: With O=C(NCC1CCCO1)c1ccc(Cl)c(S(=O)(=O)Nc2ccccc2)c1 (stereo not drawn) as the compound, how does the activity change, negative = cytotoxicity read?
A: The activity change, negative = cytotoxicity was inconclusive: -16.9%.

Q: With N#Cc1c(-c2cccc(Br)c2)cc(-c2cccnc2)nc1N as the compound, how does the Potency read?
A: Its Potency is inconclusive: 14.6 µM [cytotoxic, partial curve, poor fit].

Q: For COc1cc2[nH]c(=O)n(CCC(=O)N3CCN(c4cc(Cl)ccc4C)CC3)c(=O)c2cc1OC, which Potency is on record?
A: The Potency was inconclusive: 23.1 µM [cytotoxic, single point].

Q: For COc1ccc(S(=O)(=O)Nc2nc3ccccc3nc2NCc2ccc3c(c2)OCO3)cc1, which Potency is on record?
A: The Potency was inconclusive: 11.6 µM [cytotoxic, partial curve].

Q: Which Potency does the source give for Cc1ccc(NC(=O)Cn2nc(C)c([N+](=O)[O-])c2C)cc1C here?
A: Its Potency is “inactive”.

Q: With CCOC(=O)[C@@H]1[C@H]2COc3ccc(Br)cc3[C@@H]2N2C(=O)N(c3cccc(F)c3)C(=O)[C@@]12C as the compound, how does the Potency read?
A: The Potency was inconclusive: 0.731 µM [cytotoxic, full curve, poor fit].

Q: Which Potency does the source give for O=C1CC(c2ccsc2)c2ccc3ccccc3c2N1 (stereo not drawn) here?
A: Its Potency is “inactive”.

Q: Which Potency does the source give for CN(C)/C=N/c1ncc(C(=O)c2ccc(Cl)cc2Cl)s1 here?
A: The Potency was inconclusive: 18.4 µM [cytotoxic, single point].

Q: Which Potency does the source give for Cc1nc(N)sc1-c1csc(Nc2ncccn2)n1 here?
A: The Potency was “inactive”.

Q: Which Potency does the source give for Cc1ccc(-c2nc(C(=O)NCc3ccc(Cl)cc3)c3n2CCCCC3)cc1 here?
A: The Potency was active: 13 µM.

Q: For O=C(NCc1ccco1)c1ccc2c(c1)N(Cc1ccccc1)CCS2, which Potency is on record?
A: The Potency was inconclusive: 14.6 µM [cytotoxic, partial curve].

Q: For COC(=O)c1ccc(COc2ccc(/C=C(\C#N)c3nc4ccccc4[nH]3)cc2OC)o1, which Potency is on record?
A: The Potency was inconclusive: 4.11 µM [cytotoxic, full curve].

Q: Which Potency does the source give for CN(C(=O)CSc1nncc2ccccc12)c1ccccc1 here?
A: The Potency was “inactive”.

Q: For O=C(CSCc1ccc([N+](=O)[O-])cc1)Nc1ccc(S(=O)(=O)N2CCCCCC2)cc1, which Potency is on record?
A: The Potency was inconclusive: 25.9 µM [cytotoxic, partial curve, poor fit].

Q: For Cn1c(=O)c2c(nc(NCCCN3CCOCC3)n2Cc2cccc(Cl)c2)n(C)c1=O, which Potency is on record?
A: Its Potency is “inactive”.

Q: Which Potency does the source give for N/C(=N\c1nc(CSc2ccc(Cl)cc2)cc(=O)[nH]1)Nc1ccccc1C(F)(F)F here?
A: The Potency was inconclusive: 29.1 µM [cytotoxic, single point].

Q: With CCn1c(C)nc2cc(C(=O)NNC(=O)CN(C)S(=O)(=O)c3ccc(NC(C)=O)cc3)ccc21 as the compound, how does the activity change, negative = cytotoxicity read?
A: Its activity change, negative = cytotoxicity is inconclusive: -12.1%.

Q: With O=C(NCCCc1nc2ccccc2n1Cc1ccccc1Cl)C1CCCCC1 as the compound, how does the Potency read?
A: The Potency was “inactive”.

Q: For Cc1cc(CN(C)C(=O)c2ccc(OC3CCN(CCc4ccccc4)CC3)cc2)on1, which Potency is on record?
A: Its Potency is inconclusive: 25.9 µM [rising, single point].

Q: With CCCCn1c(=O)[nH]c(=O)c2c1ncn2Cc1ccco1 as the compound, how does the Potency read?
A: The Potency was inconclusive: 13 µM [cytotoxic, partial curve].

Q: Which Potency does the source give for CC(=O)C1=C(OC(=O)C(C)C)c2ccccc2S(=O)(=O)N1Cc1ccccc1 here?
A: Its Potency is “inactive”.

Q: For Cc1ccc(S(=O)(=O)c2nc(S(=O)(=O)c3ccccc3)sc2N2CCN(CCO)CC2)cc1, which Potency is on record?
A: Its Potency is inconclusive: 7.31 µM [cytotoxic, partial curve].

Q: Which Potency does the source give for CCC(=O)N1CCc2cc(Br)cc(S(=O)(=O)NCCc3ccc(OC)c(OC)c3)c21 here?
A: Its Potency is “inactive”.

Q: Which Potency does the source give for CN(C)C(=O)/C(C#N)=C\c1cc(Br)c(Sc2ccc(Cl)cc2)o1 here?
A: The Potency was active: 16.4 µM.

Q: Which Potency does the source give for CCOc1ccccc1C1CC(=O)NC2=C1C(=O)CC(C)(C)C2 (stereo not drawn) here?
A: Its Potency is inconclusive: 29.1 µM [rising, single point].

Q: Which Potency does the source give for CSc1ccccc1C(=O)NCC(c1ccco1)N1CCCCC1 (stereo not drawn) here?
A: Its Potency is inconclusive: 16.4 µM [cytotoxic, single point].

Q: With Cc1nc2ccccc2c(=O)n1NC(=O)c1c(O)c2c(n(CC(C)C)c1=O)CCCC2 as the compound, how does the Potency read?
A: Its Potency is inconclusive: 20.6 µM [cytotoxic, partial curve, poor fit].

Q: With CN1CCN(C2Cc3ccc(Cl)cc3Sc3ccc(F)cc32)CC1 (stereo not drawn) as the compound, how does the Potency read?
A: Its Potency is active: 16.4 µM.

Q: For O=C(CSc1nc2ncc(Cl)cc2[nH]1)c1c[nH]c2ccccc12, which Potency is on record?
A: Its Potency is “inactive”.

Q: Which Potency does the source give for O=C(/C=C/c1ccccc1)NCCSCc1ccccc1 here?
A: Its Potency is “inactive”.

Q: For Cc1ccc(CSc2nsc(C)c2C#N)cc1, which Potency is on record?
A: The Potency was inconclusive: 29.1 µM [rising, single point].

Q: With O=C1NC2c3ccccc3CC2O1 (stereo not drawn) as the compound, how does the Potency read?
A: Its Potency is inconclusive: 29.1 µM [rising, single point].

Q: For CCn1c(COc2ccc(=O)n(-c3ccccc3)n2)nnc1SCc1cccc(OC)c1, which Potency is on record?
A: The Potency was active: 16.4 µM.

Q: With CCCCCCCSc1nc(N)cc(=O)[nH]1 as the compound, how does the Potency read?
A: Its Potency is inconclusive: 18.4 µM [cytotoxic, single point].

Q: Which Potency does the source give for Cc1cc(C)cc(NC(=O)CCCSc2nc3ccccc3[nH]2)c1 here?
A: The Potency was “inactive”.

Q: Which Potency does the source give for CCn1c(SCc2ccccc2)nnc1-c1nonc1NC(C)=O here?
A: Its Potency is “inactive”.

Q: For N#CC1=C(N)Oc2cc(O)ccc2C1c1ccncc1 (stereo not drawn), which Potency is on record?
A: Its Potency is inconclusive: 6.51 µM [rising, partial curve, poor fit].

Q: With CCCCCCN(CCCCCC)C(=O)Cc1c(-c2ccc(F)cc2)[nH]c2ccccc12 as the compound, how does the Potency read?
A: Its Potency is inconclusive: 16.4 µM [cytotoxic, partial curve].

Q: For O=C1c2ccccc2C(=O)N1CCc1nc2ccccc2c(=O)n1Cc1ccco1, which Potency is on record?
A: The Potency was “inactive”.

Q: Which Potency does the source give for C[C@@H]1O[C@H](C2CCCC2)CC2=C1C(=O)OC(C)(C)O2 here?
A: The Potency was inconclusive: 0.92 µM [rising, full curve, poor fit].

Q: For C#CCOCCOCCOCCNc1nc(N2CCN(C(=O)Cn3cc(CC(C)O)nn3)CC2)nc(N2CCN(C(=O)[C@H]([C@@H](C)CC)n3cc(CCCCN)nn3)CC2)n1 (stereo partly drawn), which Potency is on record?
A: The Potency was “inactive”.
